Assay [1] concerns the target C-terminally flag-tagged full-length ASCC3 (ASCC3^FL-Flag) (human) (UniProt Q8N3C0). The experiment in a line: co-IP; Flag-tagged ASCC3 or fragments captured from HEK293 Flp-In T-REx lysate on anti-FlagM2 magnetic beads, eluted with 3xFlag peptide; ASCC2 by western blot, quantified relative to ASCC3^FL. On the technique in general: In western blotting, separated proteins are transferred to a membrane and probed.

In assay [2] the target is ASCC3 helicase region (ASCC3^HR; residues 401-2202) (human) (UniProt Q8N3C0). Put plainly: SEC; analytical SEC of mixtures of ASCC2^FL with ASCC3^NTR or ASCC3^HR; fractions analysed by SDS-PAGE; both purified.
For assay [3], the target named is T1, ASCC3^1-22 peptide R11H (human) (UniProt Q8N3C0).
T1 sequence (peptide, C-terminal amination): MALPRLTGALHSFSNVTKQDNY
Put plainly: condition: 10–15 µM peptide in the cell, 200 µM or 400 µM ASCC2^1–434 in the syringe; ITC; iTC200; ASCC3^1-22 peptide (10-15 µM) in the sample cell, ASCC2^1-434 (200 µM or 400 µM) in the syringe; 20 mM HEPES-NaOH, pH 7.5, 100 mM NaCl; 25 °C; stoichiometry fixed to 1; both purified.

Assay [4] has as its target T2, ASCC3^1-22 peptide R11C (human) (UniProt Q8N3C0).
T2 sequence (peptide, C-terminal amination): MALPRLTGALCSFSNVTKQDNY
The assay is described as above.

Assay [5] addresses ASCC3^42-197 (human) (UniProt Q8N3C0). The experiment in a line: SEC; 1 µmol ASCC2^1-434 mixed with 2 µmol ASCC3 fragment in 20 mM HEPES-NaOH, pH 7.5, 100 mM NaCl, 1 mM DTT; 30 min on ice; Superdex 200 3.2/300; fractions by SDS-PAGE; both purified. For orientation: In gel filtration, larger molecules generally elute earlier.
Assay [6] shares this target. Put plainly: condition: 10 µM ASCC3 variant in the cell, 100 µM ASCC2 variant in the syringe; ITC; iTC200; ASCC3 variant (10 µM) in the sample cell, ASCC2 variant (100 µM) in the syringe; 20 mM HEPES-NaOH, pH 7.5, 100 mM NaCl; 25 °C; stoichiometry fixed to 1; both purified.

No constants are given. Whether binding was seen depends on the method and setting. For part of these data: In cells and extracts the contact can be indirect. Some entries that bind do so weakly or less than the wild type.

B1: ASCC2, endogenous in HEK293 cells (protein, UniProt Q9H1I8 1-757)
chain: MPALPLDQLQITHKDPKTGKLRTSPALHPEQKADRYFVLYKPPPKDNIPALVEEYLERATFVANDLDWLLALPHDKFWCQVIFDETLQKCLDSYLRYVPRKFDEGVASAPEVVDMQKRLHRSVFLTFLRMSTHKESKDHFISPSAFGEILYNNFLFDIPKILDLCVLFGKGNSPLLQKMIGNIFTQQPSYYSDLDETLPTILQVFSNILQHCGLQGDGANTTPQKLEERGRLTPSDMPLLELKDIVLYLCDTCTTLWAFLDIFPLACQTFQKHDFCYRLASFYEAAIPEMESAIKKRRLEDSKLLGDLWQRLSHSRKKLMEIFHIILNQICLLPILESSCDNIQGFIEEFLQIFSSLLQEKRFLRDYDALFPVAEDISLLQQASSVLDETRTAYILQAVESAWEGVDRRKATDAKDPSVIEEPNGEPNGVTVTAEAVSQASSHPENSEEEECMGAAAAVGPAMCGVELDSLISQVKDLLPDLGEGFILACLEYYHYDPEQVINNILEERLAPTLSQLDRNLDREMKPDPTPLLTSRHNVFQNDEFDVFSRDSVDLSRVHKGKSTRKEENTRSLLNDKRAVAAQRQRYEQYSVVVEEVPLQPGESLPYHSVYYEDEYDDTYDGNQVGANDADSDDELISRRPFTIPQVLRTKVPREGQEEDDDDEEDDADEEAPKPDHFVQDPAVLREKAEARRMAFLAKKGYRHDSSTAVAGSPRGHGQSRETTQERRKKEANKATRANHNRRTMADRKRSKGMIPS
As to B1, the binding entry in assay [1] was “binds”.

B2: Full-length ASCC2 (ASCC2^FL) (protein, UniProt Q9H1I8 1-757)
chain: B1 chain
Turning to B2, the binding entry in assay [2] was “no binding”.

B3: ASCC2^1-434 (domain or fragment, human, UniProt Q9H1I8 1-434, looked up)
chain: MPALPLDQLQITHKDPKTGKLRTSPALHPEQKADRYFVLYKPPPKDNIPALVEEYLERATFVANDLDWLLALPHDKFWCQVIFDETLQKCLDSYLRYVPRKFDEGVASAPEVVDMQKRLHRSVFLTFLRMSTHKESKDHFISPSAFGEILYNNFLFDIPKILDLCVLFGKGNSPLLQKMIGNIFTQQPSYYSDLDETLPTILQVFSNILQHCGLQGDGANTTPQKLEERGRLTPSDMPLLELKDIVLYLCDTCTTLWAFLDIFPLACQTFQKHDFCYRLASFYEAAIPEMESAIKKRRLEDSKLLGDLWQRLSHSRKKLMEIFHIILNQICLLPILESSCDNIQGFIEEFLQIFSSLLQEKRFLRDYDALFPVAEDISLLQQASSVLDETRTAYILQAVESAWEGVDRRKATDAKDPSVIEEPNGEPNGVTVTA
notes: source: E. coli BL21 (DE3), purified (Ni-NTA, SEC); not shown: His6, N-terminal, cleaved
On to B3, for which the binding entry (in assay [3]; in assay [4]; with ASCC3^42-197 (human) [5]; in the assay with ASCC3^42-197 (human) [6]) was “no binding” in each case.

Source of the values: paper PMC7608686, “The interaction of DNA repair factors ASCC2 and ASCC3 is affected by somatic cancer mutations” (Nature Communications, 2020).
